Publication PMC10163288
The other results are listed elsewhere or left out.

B1: il10ra_site1_normal_mot_HHH_b2_04275_000000272_0001_20_36_H_._HHH_b2_04520_0001_0000200024_0000001_1_af2pred_dldesign_0_af2pred (protein)
chain: SSSSSPQEELVRLVREIAELLSEGKLEEAKKLLEKAKELAEKLGDKVTLRTLEYLEKQLESSSSS
B2: il10ra_site1_sap_16_mot_HHH_b2_06643_000000103_0001_1_18_H_._HHH_b2_07694_0001_0000100008_0000001_0_0001_af2pred_0001 (protein)
chain: SSSSSSEEEELAELALRLLVEALQHGDPELREEIKELIEEAEKVGDERVVRLLRAALRALSSSSS
B3: il10ra_site1_sap_11_mot_HHH_b1_06789_af2_000000041_0001_1_20_H_._HHH_b2_05339_af2_0001_0000600013_0000001_0_0001_af2pred_0001 (protein)
chain: SSSSDEERKEVEELLEEAEHIEDPLERAYVLSKAYALAVEIRDPEAERLVKEVARRLSERSSSSS
B4: il10ra_site1_sap_18_mot_HHH_b2_00984_000000042_0001_1_20_H_._HHH_b2_04529_0001_0000100002_0000002_0_0001 (protein)
chain: SSSSDEEEIEEVLELAERLQELAEERGNRALAWLVRQALKALRLAKDPHALRMLKSLIRLNSSSS
B5: il10ra_site1_sap_10_mot_HHH_b2_00943_af2_000000149_0001_1_17_H_._HHH_b1_00350_0002_0000200016_0000002_0_0001 (protein)
chain: SSSSSEEEKRLEELIEEAEELLERGNPQEAIRVLREAVRIAYRANDAELLRQLWELIRKVASSSS
B6: il10ra_site1_normal_mot_HHH_b1_05056_000000217_0001_1_20_H_._HHH_b2_00793_0001_0000200005_0000001_0 (protein)
chain: SSSSSSSEEEEVEELLEEAREIEDEEEVSRLLQEAAHVALRAQNQELLQLVWEVVKELSSSSSSS
B7: il10ra_site1_sap_17_mot_HHH_b2_00984_000000042_0001_1_20_H_._263437940a0803172d72c1f0c28c3a46_0001_0001_0000500012_0000001_0_0001_af2pred_0001 (protein)
chain: SSSSDKEKAFRLYIEAYIALAQGNPEEAEELLREALEIAKELGDEALIRAIERLLELVERKSSSS
B8: il10ra_site1_sap_19_mot_HHH_b2_01032_000000296_0001_1_18_H_._HHH_b2_05460_af2_0001_0000100004_0000002_0_0001_af2pred_0001 (protein)
chain: SSSSSSDLEQTARAQLWFARLIENPDARRIALEFAEEVAEEAGDEELLKEIREELEEVGSSSSSS
B9: il10ra_site1_sap_18_mot_65b8060e20531850bca9f2e11f97d954_0001_af2_000000137_0001_17_31_H_._HHH_b1_01433_0001_0000100004_0000001_0_0001_af2pred_0001 (protein)
chain: SSSSDVEERVEELEQEVRELLENGNPHEALKVIREIARLAAENNDDEALEIALELVRLVFSSSSS
B10: il10ra_site1_sap_21_mot_HHH_b2_02337_000000026_0001_38_52_H_._HHH_b1_05241_af2_0001_0000100004_0000001_1_0001 (protein)
chain: SSSSSDEEQRALEIFQEAFRALLRGNPEEAEELLREAEELAREIGDERLLEMIEDLKRANSSSSS
B11: il10ra_site1_sap_36_mot_0eddeacbb14b769e73e254714f31e2f9_0001_af2_000000203_0001_37_51_H_._HHH_eva_0267_0001_0000500013_0000002_0_0001 (protein)
chain: SSSSSEEEKKLEELLEELEELVKEGDRERIAKLAQEVLRLAFQLSDEEALRAVWRVMRRLSSSSS
B12: il10ra_site1_normal_mot_HHH_b1_03859_af2_000000004_0001_44_57_H_._HHH_b2_05934_af2_0001_0000200016_0000001_0_af2pred_0001 (protein)
chain: SSSSDDEEEIARSAVRAVEFLLELNDEEKFRLALKDAKATAKTLGDEEVEKKLREIEERLSSSSS
B13: il10ra_site1_sap_17_mot_39ab2cb694c8b9c1dc7e65c0d672c93e_0001_000000036_0001_53_65_H_._HHH_b2_01477_0001_0000600029_0000002_0_0001 (protein)
chain: SSSSDRHREIYELLRELAEAVHENDEELAEELIEEIRRLIEEAGDWAMRFALEVSKEALDSSSSS
B14: il10ra_site1_normal_mot_HHH_b2_02757_000000230_0001_1_19_H_._HHH_b2_02010_af2_0001_0000400010_0000001_0 (protein)
chain: SSSSSDRLEELEEEIEKAIEEGDPELAIQLLWEAIRLAVELGDREVLHHLFELLREVLNSSSSSS
B15: il10ra_site1_normal_mot_HHH_b2_06795_000000133_0001_42_56_H_._HHH_b2_07010_0002_0000200015_0000002_0 (protein)
chain: SSSSNAEEAARFLLEMAKRLLELGDPERARQALRFAEAAAKYAGDEELLREIEELLEELNSSSSS
B16: il10ra_site1_normal_mot_HHH_b1_04100_af2_000000180_0001_1_19_H_._HHH_b1_06500_0001_0000100003_0000001_1_af2pred_0001 (protein)
chain: SSSSSDLAEKAIRILLRAVKELEDPERARLALEDAKFAAENANNPELQEEIERLLEELERSSSSS
B17: il10ra_site1_sap_17_mot_HEEHE_1605_000000211_0001_40_56_H_._9e622f7d73aa0ff91040b48e8c7f7504_0001_1_af2_0001_0000600013_0000002_0_0001 (protein)
chain: SSSSSDANHEALELVLEAMHAMLRGDREEAERLLEEALELAREGNNERLAKQIEILLENASSSSS
B18: il10ra_site1_normal_mot_HHH_b1_05326_000000242_0001_1_20_H_._HHH_b1_03875_0001_0000500011_0000001_0 (protein)
chain: SSSSSSLEEALELAQHAFRALLRGNPEEARELLEEALELAREENNERLVRVIEDALKIASSSSSS
B19: il10ra_site1_sap_24_mot_HHH_b2_04679_000000194_0001_21_38_H_._HHH_b2_08140_0001_0000300042_0000001_0_0001 (protein)
chain: SSSSSVEELEKKVEELIEKVPDPAARWLAEQALKAARLALERGDEELAERALRMAERVLNSSSSS
B20: il10ra_site1_sap_25_mot_HHH_b2_03434_000000017_0001_1_19_H_._HHH_b2_05932_af2_0001_0000100002_0000001_0_0001 (protein)
chain: SSSSDEETQRVFELIREAVELDLDGDPEEAEKVLEEARELAEEAGNELFLRQVEWLLELLRSSSS
B21: il10ra_site1_normal_mot_HHH_b1_00682_000000211_0001_1_20_H_._HHH_b2_01840_0001_0000500065_0000002_0 (protein)
chain: SSSSDVEERVEELLEQARELLEKGNPDEAYKLLREAVELASERNDPELQRLVMKVSRELFSSSSS
B22: il10ra_site1_normal_mot_HHH_b1_02062_000000185_0001_1_20_H_._HHH_b1_08541_0001_0000100004_0000001_0 (protein)
chain: SSSSSEERRRAYELSREISELDSEGDEEEAKKLLEELEKLVEELGSELLKFIVKLLEEQLHSSSS
B23: il10ra_site1_normal_mot_HHH_b1_06994_000000193_0001_40_55_H_._HHH_b1_06132_0001_0000300033_0000001_0 (protein)
chain: SSSSSEEEELLRAVLRLAQQAIEAGNPEAARFLLLSAEILAREVGDEELLEEVERLLEELSSSSS
B24: il10ra_site1_normal_mot_65b8060e20531850bca9f2e11f97d954_0001_af2_000000137_0001_17_31_H_._HHH_b1_06583_0001_0000300016_0000001_0_af2pred_0001 (protein)
chain: SSSSSEERRRALELILRIAKLLLRGDKEEAEELLEELEELAEKLNDPRLRLSLRALESSLKSSSS
B25: il10ra_site1_normal_mot_8756ee2cf497b5429c717dfc0c0bcfd6_0001_000000186_0001_1_13_H_._HHH_b1_07469_0001_0000200008_0000001_0 (protein)
chain: SSSDEIEEIQELIRRAAELLHEGNPEEAEELLRRAEELAREANNDVLLFQVEYLLRLAEEDSSSS
B26: il10ra_site1_sap_19_mot_HHH_b1_08508_000000230_0001_42_56_H_._HHH_b1_06584_0001_0000100001_0000001_0_0001_af2pred_0001 (protein)
chain: SSSSDEEKREVAYLLVRAYAAAAQGDEEAVEELLEEARRVAEEGNDPRLEEVVEIVAKLLLSSSS
B27: il10ra_site1_sap_20_mot_HHH_b1_02062_000000185_0001_1_20_H_._HHH_b1_05367_0001_0000200009_0000001_0_0001 (protein)
chain: SSSSSSDLEELLEELEQLLEEGDRERFAKVALEILRLAFQLSDPEVLRAVWELIRKLASSSSSSS
B28: il10ra_site1_normal_mot_HHH_b2_03568_000000058_0001_1_19_H_._HHH_b1_01244_0001_0000200011_0000001_0 (protein)
chain: SSSSSDEAYKLARRAIEEASEIFKRDPEKAREILEEAREEAEELNNFAVVFALEHLLRALSSSSS
B29: il10ra_site1_sap_13_mot_HHH_b2_05084_af2_000000250_0001_43_57_H_._c839b00de2d74b58ead539899b931618_0001_af2_0001_0000200015_0000001_0_0001_af2pred_0001 (protein)
chain: SSSSSDERRRVLELIRELLELLKEGDEEEAERVFEEAEELAKEANDPSAEKLLRALFEKGSSSSS
B30: il10ra_site1_normal_mot_HHH_b1_06914_000000280_0001_1_18_H_._HHH_b1_02694_0001_0000200011_0000001_0 (protein)
chain: SSSSTEEDHELYRLSREAAELFAEGDPEQAEEVLEEALRLAEEAGNFVALFALRLLLRDLRSSSS
B31: il10ra_site1_normal_mot_HHH_b1_00999_000000080_0001_41_55_H_._HHH_b2_02400_0001_0000200004_0000001_1 (protein)
chain: SSSSSDEEEEEVEELLEEAKQIPDPRELNRVLLEALRVAFEGQDPELLRLVWEVVKKLGSSSSSS
B32: il10ra_site1_sap_21_mot_HHH_b1_04828_000000265_0001_23_38_H_._HHH_b1_04671_0001_0000100004_0000001_0_0001 (protein)
chain: SSSSEEERVEELLEEAKELIEEGDPEKASKVLLEATHLAIQSQDPELLRLVWEVVKEVAEHSSSS
B33: il10ra_site1_normal_mot_HHH_b2_08186_000000021_0001_43_56_H_._HHH_b2_00645_0001_0000300025_0000002_0 (protein)
chain: SSSSSSDTREEVEELLEEAEEIDDPEERFRLLLRALRLAFEAGDQEALQLVWEVLKEISSSSSSS
B34: il10ra_site1_sap_22_mot_HHH_b2_03220_af2_000000223_0001_23_40_H_._HHH_b1_01542_0001_0000500044_0000001_0_0001_af2pred_0001 (protein)
chain: SSSSSEEEVEELERRIEELLEEGNRHEAAALILRLFALAHELRDPEVEEEARRLAQLAANSSSSS
B35: il10ra_site1_sap_21_mot_HHH_b2_07442_000000239_0001_40_54_H_._HHH_b2_00236_af2_0001_0000500036_0000001_0_0001 (protein)
chain: SSSSDEEERQLKELLEELKELVEEGDRERFAKVVLELLRLAFQLRDEEALQLLWELMEELASSSS
B36: il10ra_site1_normal_mot_HHH_b2_00984_000000042_0001_1_20_H_._HHH_b1_06168_af2_0001_0000500031_0000001_0_af2pred_0001 (protein)
chain: SSSSDEEEKEIEELIEEVERLLKEGDPEEASRLVIEALQLAAEIQNPELLERLARLSREILSSSS
B37: il10ra_site1_normal_mot_HHH_b1_06994_000000193_0001_40_55_H_._HHH_b1_07129_0001_0000100013_0000001_0 (protein)
chain: SSSSDQEEELLRAALRLIEQIFEAGDPRAARILLEAAQRIAEQLGNEELLKKLEELEEEISSSSS

Target: il10ra, Q13651
Experiment: yeast display titration

Apparent Kd, inactive:
B1 no binding seen
B2 no binding seen
B3 no binding seen
B4 > 1410 nM
B5 no binding seen
B6 no binding seen
B7 no binding seen
B8 no binding seen
B9 no binding seen
B10 no binding seen
B11 no binding seen
B12 no binding seen
B13 no binding seen
B14 no binding seen
B15 no binding seen
B16 no binding seen
B17 no binding seen
B18 no binding seen
B19 no binding seen
B20 no binding seen
B21 no binding seen
B22 no binding seen
B23 no binding seen
B24 no binding seen
B25 no binding seen
B26 no binding seen
B27 no binding seen
B28 no binding seen
B29 no binding seen
B30 no binding seen
B31 no binding seen
B32 no binding seen
B33 no binding seen
B34 no binding seen
B35 > 1210 nM
B36 no binding seen
B37 no binding seen

Already shown: an excerpt of the list.
Apparent Kd, inactive:
B2 no binding seen
B3 no binding seen
B4 > 1410 nM
B5 no binding seen
B6 no binding seen
B7 no binding seen
B8 no binding seen
